Measurements: publication PMC7552479
Results are given in words; binding and its absence hold for the method and conditions named. In cells and extracts the contact can be indirect. Some binding calls cover weakened binding; strength is not graded here. One block for each molecule: values may come before it.

By UniProt entry, the sequences of proteins in these tests, tags left out.
UniProt P40763: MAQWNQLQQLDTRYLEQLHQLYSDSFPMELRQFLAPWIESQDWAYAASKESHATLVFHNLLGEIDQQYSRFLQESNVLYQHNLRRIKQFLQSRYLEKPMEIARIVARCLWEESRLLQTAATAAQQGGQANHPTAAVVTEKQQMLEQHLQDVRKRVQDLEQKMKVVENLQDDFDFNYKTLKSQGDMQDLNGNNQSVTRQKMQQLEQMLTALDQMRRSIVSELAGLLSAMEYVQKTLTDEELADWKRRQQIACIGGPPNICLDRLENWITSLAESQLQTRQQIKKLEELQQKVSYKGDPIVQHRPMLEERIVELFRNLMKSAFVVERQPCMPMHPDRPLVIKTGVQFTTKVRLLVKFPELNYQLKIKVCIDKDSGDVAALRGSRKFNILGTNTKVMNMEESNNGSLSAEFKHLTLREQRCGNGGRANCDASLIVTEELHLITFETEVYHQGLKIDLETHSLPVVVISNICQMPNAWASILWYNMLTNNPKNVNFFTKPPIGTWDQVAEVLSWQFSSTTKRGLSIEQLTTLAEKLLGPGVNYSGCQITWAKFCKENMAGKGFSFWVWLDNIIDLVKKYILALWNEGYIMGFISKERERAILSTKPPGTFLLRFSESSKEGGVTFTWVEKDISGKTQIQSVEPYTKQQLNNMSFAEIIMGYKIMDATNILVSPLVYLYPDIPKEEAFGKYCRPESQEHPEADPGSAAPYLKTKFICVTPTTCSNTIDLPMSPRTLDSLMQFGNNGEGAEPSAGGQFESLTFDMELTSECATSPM

What was measured:
[1] = molecular target: T1, SLC2A3 (human (endogenous in MKN45 and SNU216)) (UniProt P11169); test: co-IP; lysate (100 ug protein) of MKN45 and SNU216 cells incubated with anti-SLC2A3, anti-p-STAT3 (Tyr705) or IgG (negative control) at 4 C overnight; protein A/G magnetic beads 4-6 h at 4 C; four washes with PBS; western blot
T1 sequence: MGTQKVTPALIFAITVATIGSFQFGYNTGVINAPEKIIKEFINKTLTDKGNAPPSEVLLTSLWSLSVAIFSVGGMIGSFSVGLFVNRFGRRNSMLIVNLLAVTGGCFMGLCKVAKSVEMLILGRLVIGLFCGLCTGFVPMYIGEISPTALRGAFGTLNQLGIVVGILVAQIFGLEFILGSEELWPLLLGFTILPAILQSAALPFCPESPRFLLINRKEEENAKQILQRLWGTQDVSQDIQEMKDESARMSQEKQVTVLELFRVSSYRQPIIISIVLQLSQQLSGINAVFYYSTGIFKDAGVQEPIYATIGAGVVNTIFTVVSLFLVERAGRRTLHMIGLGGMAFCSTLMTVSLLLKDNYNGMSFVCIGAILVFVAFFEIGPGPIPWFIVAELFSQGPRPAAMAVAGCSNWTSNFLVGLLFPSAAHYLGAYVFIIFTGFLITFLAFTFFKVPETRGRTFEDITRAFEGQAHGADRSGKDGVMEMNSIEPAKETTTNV

[2] = molecular target: phosphorylated STAT3 (Tyr705) (human (endogenous in MKN45 and SNU216)) (UniProt P40763); test: as above

- binding [1]: binds
Molecule: phosphorylated STAT3 (Tyr705) (from UniProt P40763 1-770)

- binding [2]: binds
B1: SLC2A3 (protein, UniProt P11169 1-496)
chain: T1 sequence
